From the supplement of paper PMC10849652
The other results are listed elsewhere or left out.

Chains of the proteins cited; added tags and fusions are not shown. Lines headed by an entry give the natural chain unless they say otherwise; changes in a name come on top.
UniProt Q9NV35: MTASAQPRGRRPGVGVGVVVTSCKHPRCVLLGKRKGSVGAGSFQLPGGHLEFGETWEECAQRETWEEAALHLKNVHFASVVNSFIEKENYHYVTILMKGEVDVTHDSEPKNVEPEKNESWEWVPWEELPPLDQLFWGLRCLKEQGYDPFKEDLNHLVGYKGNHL
UniProt Q9Y266: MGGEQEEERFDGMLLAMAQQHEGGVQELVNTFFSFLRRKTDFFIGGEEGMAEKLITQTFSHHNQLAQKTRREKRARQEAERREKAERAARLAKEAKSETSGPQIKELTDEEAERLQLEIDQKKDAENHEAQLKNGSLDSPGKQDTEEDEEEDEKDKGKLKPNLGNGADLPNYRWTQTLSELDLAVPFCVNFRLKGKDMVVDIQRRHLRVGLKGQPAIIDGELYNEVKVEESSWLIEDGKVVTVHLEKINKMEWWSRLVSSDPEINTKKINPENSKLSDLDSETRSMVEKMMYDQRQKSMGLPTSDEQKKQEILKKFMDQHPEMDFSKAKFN
UniProt Q13232: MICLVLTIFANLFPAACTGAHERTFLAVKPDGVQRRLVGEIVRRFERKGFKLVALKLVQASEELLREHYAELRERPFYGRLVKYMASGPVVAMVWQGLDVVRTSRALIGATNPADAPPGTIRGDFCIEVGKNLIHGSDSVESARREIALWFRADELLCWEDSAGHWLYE
UniProt Q9Y2X3: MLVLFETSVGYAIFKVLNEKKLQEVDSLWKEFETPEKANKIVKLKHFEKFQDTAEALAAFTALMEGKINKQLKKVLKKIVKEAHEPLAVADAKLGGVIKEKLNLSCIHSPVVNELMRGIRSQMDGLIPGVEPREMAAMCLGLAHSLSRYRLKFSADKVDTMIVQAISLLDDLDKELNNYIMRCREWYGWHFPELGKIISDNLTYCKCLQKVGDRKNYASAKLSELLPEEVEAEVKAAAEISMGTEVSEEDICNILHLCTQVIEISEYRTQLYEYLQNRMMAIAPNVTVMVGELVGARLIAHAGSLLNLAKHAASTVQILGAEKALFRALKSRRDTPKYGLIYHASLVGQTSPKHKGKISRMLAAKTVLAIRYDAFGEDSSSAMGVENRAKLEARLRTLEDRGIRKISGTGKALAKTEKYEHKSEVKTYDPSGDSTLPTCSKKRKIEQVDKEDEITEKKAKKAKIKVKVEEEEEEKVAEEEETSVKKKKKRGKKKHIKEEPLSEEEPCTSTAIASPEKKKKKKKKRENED
UniProt P49790, whole entry, looked up: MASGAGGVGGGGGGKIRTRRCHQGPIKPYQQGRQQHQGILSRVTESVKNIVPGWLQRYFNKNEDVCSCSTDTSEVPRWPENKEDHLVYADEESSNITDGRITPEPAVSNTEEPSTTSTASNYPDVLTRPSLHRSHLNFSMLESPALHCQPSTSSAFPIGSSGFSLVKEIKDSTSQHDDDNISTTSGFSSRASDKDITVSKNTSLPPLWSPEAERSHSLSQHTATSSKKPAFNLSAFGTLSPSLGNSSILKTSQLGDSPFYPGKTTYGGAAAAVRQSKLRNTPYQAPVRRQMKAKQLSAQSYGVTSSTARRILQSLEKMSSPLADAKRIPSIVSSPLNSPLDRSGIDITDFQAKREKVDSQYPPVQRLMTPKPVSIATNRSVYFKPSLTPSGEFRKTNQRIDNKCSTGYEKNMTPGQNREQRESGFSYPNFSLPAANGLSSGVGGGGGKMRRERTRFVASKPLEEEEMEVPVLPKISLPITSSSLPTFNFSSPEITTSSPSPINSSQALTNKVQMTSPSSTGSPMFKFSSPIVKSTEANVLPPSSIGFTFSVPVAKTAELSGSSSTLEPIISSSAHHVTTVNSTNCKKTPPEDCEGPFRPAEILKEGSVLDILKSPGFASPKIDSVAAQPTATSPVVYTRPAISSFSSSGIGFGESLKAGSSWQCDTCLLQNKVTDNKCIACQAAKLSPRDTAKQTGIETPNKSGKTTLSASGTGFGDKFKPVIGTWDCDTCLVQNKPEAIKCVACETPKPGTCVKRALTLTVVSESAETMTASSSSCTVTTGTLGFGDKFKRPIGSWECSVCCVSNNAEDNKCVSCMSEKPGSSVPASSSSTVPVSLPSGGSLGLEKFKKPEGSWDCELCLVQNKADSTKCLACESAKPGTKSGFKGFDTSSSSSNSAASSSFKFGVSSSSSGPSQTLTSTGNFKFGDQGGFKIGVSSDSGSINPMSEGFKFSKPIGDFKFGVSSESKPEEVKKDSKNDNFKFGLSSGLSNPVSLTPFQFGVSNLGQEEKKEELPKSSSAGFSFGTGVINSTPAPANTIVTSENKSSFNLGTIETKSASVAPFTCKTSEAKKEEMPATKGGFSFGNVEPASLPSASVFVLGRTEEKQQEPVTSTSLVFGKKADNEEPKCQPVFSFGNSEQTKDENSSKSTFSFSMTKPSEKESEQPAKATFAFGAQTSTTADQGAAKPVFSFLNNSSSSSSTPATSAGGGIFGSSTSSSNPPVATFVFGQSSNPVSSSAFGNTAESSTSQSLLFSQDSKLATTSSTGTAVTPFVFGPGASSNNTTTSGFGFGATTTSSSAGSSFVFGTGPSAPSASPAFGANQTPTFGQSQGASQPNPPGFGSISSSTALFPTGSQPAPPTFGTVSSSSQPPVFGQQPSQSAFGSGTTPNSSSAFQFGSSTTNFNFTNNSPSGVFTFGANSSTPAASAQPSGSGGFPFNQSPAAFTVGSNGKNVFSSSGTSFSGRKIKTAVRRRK
UniProt Q9BSC4: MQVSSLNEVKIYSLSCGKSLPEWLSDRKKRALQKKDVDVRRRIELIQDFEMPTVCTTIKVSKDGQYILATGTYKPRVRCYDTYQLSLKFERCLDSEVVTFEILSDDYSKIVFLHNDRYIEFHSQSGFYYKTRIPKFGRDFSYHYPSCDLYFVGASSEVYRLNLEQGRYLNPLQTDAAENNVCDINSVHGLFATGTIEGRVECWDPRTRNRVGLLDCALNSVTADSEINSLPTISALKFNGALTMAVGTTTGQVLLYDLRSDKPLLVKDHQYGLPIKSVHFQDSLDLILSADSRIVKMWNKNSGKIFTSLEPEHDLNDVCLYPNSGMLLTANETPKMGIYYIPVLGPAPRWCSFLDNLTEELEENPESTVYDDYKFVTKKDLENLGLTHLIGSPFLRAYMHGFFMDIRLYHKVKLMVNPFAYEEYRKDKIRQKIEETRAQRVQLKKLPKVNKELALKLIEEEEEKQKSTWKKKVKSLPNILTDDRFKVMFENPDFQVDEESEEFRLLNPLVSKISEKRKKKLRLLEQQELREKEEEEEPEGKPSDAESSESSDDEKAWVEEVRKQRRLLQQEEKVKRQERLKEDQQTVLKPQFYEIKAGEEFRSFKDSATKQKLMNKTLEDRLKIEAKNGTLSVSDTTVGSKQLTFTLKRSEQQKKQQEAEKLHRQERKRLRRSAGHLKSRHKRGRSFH
UniProt Q9Y6R0: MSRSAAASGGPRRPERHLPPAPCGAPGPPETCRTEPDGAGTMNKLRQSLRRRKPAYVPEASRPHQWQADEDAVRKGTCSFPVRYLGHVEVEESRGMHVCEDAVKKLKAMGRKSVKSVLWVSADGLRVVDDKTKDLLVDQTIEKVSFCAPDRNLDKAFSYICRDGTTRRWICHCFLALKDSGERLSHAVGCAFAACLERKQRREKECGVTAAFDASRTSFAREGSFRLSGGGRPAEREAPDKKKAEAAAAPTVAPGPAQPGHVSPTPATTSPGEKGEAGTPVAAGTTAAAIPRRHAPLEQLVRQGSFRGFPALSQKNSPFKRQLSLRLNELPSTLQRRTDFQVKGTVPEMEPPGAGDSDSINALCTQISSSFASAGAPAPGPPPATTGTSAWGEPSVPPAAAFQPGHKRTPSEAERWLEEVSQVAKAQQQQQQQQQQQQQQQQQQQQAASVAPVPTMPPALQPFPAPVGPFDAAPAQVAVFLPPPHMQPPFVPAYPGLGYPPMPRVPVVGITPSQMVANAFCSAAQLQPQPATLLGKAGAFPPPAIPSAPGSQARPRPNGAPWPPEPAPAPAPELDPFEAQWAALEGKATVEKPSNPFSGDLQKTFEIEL
UniProt Q9NSY0: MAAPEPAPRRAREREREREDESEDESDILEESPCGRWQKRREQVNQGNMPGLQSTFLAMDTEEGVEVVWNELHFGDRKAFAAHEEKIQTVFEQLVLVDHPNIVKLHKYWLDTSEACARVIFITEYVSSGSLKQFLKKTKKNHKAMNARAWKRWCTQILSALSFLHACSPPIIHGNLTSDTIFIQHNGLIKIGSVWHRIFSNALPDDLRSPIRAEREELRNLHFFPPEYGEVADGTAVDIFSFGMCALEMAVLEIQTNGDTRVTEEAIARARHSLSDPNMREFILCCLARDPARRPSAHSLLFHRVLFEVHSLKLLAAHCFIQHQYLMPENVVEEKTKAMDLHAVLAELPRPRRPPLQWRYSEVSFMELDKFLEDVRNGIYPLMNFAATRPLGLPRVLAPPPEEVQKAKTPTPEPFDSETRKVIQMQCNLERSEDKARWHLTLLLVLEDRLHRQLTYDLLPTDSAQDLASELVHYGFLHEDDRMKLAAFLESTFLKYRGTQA
UniProt Q5SY16: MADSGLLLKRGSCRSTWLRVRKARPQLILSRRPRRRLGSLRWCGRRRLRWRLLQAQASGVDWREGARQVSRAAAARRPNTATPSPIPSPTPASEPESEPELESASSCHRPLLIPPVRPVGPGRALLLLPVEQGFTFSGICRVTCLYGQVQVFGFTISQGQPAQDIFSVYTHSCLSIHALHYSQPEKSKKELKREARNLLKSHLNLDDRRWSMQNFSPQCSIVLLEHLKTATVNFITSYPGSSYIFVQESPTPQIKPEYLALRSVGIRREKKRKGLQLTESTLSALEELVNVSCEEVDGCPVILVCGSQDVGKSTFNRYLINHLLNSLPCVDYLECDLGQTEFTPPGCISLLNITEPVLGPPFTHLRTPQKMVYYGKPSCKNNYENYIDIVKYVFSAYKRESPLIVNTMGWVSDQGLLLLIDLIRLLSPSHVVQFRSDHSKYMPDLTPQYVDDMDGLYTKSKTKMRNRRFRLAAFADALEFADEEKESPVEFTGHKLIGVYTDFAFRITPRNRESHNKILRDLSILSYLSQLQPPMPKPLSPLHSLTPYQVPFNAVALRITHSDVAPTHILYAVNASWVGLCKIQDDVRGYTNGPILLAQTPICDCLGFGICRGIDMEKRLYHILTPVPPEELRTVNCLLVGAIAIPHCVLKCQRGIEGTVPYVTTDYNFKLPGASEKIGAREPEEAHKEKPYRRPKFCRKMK
UniProt Q9BW91: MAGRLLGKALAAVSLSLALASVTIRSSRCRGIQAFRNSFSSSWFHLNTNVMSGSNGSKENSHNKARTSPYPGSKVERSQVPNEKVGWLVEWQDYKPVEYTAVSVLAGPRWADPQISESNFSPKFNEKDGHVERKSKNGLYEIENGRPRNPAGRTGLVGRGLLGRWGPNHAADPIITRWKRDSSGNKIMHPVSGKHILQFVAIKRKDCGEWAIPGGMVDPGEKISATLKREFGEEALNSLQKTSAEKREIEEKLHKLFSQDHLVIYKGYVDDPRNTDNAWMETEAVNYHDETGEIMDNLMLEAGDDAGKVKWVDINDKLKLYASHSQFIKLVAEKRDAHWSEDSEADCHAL
UniProt Q8IVI9: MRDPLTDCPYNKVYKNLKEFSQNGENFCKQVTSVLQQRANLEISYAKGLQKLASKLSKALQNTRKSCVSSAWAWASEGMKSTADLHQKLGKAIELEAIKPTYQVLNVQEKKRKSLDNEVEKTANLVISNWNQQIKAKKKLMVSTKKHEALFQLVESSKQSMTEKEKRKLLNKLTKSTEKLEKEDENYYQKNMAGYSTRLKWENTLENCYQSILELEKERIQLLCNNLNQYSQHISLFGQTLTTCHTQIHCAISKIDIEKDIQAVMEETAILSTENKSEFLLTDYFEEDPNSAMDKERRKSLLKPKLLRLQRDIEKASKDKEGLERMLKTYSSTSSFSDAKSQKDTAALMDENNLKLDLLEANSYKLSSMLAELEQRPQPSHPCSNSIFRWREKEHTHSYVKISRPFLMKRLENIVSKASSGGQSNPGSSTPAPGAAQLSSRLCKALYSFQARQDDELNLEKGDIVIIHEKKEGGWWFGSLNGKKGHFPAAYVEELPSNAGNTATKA
UniProt Q9H0G5: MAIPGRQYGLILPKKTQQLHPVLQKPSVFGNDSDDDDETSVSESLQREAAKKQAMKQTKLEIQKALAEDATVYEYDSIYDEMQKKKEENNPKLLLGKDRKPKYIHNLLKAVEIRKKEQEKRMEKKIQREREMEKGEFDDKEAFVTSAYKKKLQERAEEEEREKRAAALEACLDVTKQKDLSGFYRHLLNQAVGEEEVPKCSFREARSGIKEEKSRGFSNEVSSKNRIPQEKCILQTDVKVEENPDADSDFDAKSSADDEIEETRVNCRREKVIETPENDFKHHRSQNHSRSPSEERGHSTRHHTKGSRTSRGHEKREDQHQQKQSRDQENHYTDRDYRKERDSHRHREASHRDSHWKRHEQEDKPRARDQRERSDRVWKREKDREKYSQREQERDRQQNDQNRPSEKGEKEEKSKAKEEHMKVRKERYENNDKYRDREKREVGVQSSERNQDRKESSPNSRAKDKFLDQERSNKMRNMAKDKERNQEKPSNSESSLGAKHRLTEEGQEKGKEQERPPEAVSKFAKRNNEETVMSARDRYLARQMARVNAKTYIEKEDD

Tests used:
Experiment in all cases: log2 fold change, soluble protein after heating vs DMSO (PISA); higher = thermal stabilisation; K562 lysate, 10 uM; active = over 0.2 and 3.5 SD of the protein, either way, in both replicates (recomputed)
[1] = compound: CS(=O)(=O)CCNCc1ccc(-c2ccc3ncnc(Nc4ccc(OCc5cccc(F)c5)c(Cl)c4)c3c2)o1 [lapatinib]
Summary of the method: (§1)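 Thermal stability, expressed as log-two fold change relative to solvent controls, is given from duplicates. Crude K562 extract in PBS pH 7.4 with 1 mM MgCl2, at 1 mg/mL protein, was treated with 10 μM compound for 30 min and heated in aliquots for 3 min across 48°C-58°C. After pooling, adjustment to 0.5% NP-40 at 4°C and centrifugation at 21,000xg for 90 min, supernatant protein was measured by TMTpro 16plex LC-MS/MS with channel sums equalised.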

[2] = compound: CS(=O)(=O)N1CCN(Cc2cc3nc(-c4cccc5[nH]ncc45)nc(N4CCOCC4)c3s2)CC1 [pictilisib]
Summary of the method: as §1

[3] = compound: C[C@@H](Oc1cc(-c2cnn(C3CCNCC3)c2)cnc1N)c1c(Cl)ccc(F)c1Cl [crizotinib]
Summary of the method: as §1

[4] = compound: C[C@H](C1=CC=C(C=C1)C(=O)NC2=C3C=CNC3=NC=C2)N
Summary of the method: as §1

[5] = compound: C[C@H](Nc1ncnc2nc[nH]c12)c1cc2cccc(Cl)c2c(=O)n1-c1ccccc1 [duvelisib]
Summary of the method: as §1

[6] = compound: Cc1cc(Nc2cc(CN3CCOCC3)c3nc(C)c(Cc4ccc(Cl)cc4F)n3n2)n[nH]1 [gandotinib]
Summary of the method: as §1

[7] = compound: Cc1cc(Nc2cc(N3CCN(C)CC3)nc(Sc3ccc(NC(=O)C4CC4)cc3)n2)n[nH]1 [tozasertib]
Summary of the method: as §1

[8] = compound: Cc1ccc(-n2nc(C(C)(C)C)cc2NC(=O)Nc2ccc(OCCN3CCOCC3)c3ccccc23)cc1 [doramapimod]
Summary of the method: as §1

[9] = compound: Cc1ccc(NC(=O)c2ccc(CN3CC[C@H](N(C)C)C3)c(C(F)(F)F)c2)cc1Nc1nccc(-c2cncnc2)n1 [bafetinib]
Summary of the method: as §1

[10] = compound: Cc1cccc(CC(=O)N2CCc3c2ccc(-c2cn(C)c4ncnc(N)c24)c3F)n1
Summary of the method: as §1

Measured: log2 fold change

NUDT19 (UniProt A8MXV4)
inactive: [1] 0.016 | [2] -0.009 | [3] -0.015 | [4] -0.004 | [5] 0.012 | [6] -0.012 | [7] -0.05 | [8] -0.029 | [9] 0.003 | [10] -0.05

NOP10 (UniProt Q9NPE3)
inactive: [1] -0.084 | [2] -0.148 | [3] 0.045 | [4] 0.013 | [5] 0.046 | [6] -0.051 | [7] -0.102 | [8] 0.067 | [9] 0.087 | [10] -0.006

NUDT15 (UniProt Q9NV35)
inactive: [1] 0.001 | [2] 0.053 | [3] 0.012 | [4] -0.127 | [5] 0.006 | [6] 0.016 | [7] 0.056 | [8] 0.014 | [9] -0.041 | [10] 0.05

NMNAT1 (UniProt Q9HAN9)
inactive: [1] -0.035 | [2] 0.003 | [3] 0.008 | [4] -0.022 | [5] 0.007 | [6] -0.013 | [7] 0.001 | [8] -0.025 | [9] 0.011 | [10] 0.01

NUDC (UniProt Q9Y266)
inactive: [1] -0.01 | [2] 0.023 | [3] 0.051 | [4] 0.047 | [5] 0.021 | [6] -0.027 | [7] 0.01 | [8] -0.016 | [9] -0.007 | [10] -0.061

NPLOC4 isoform 2 (UniProt Q8TAT6)
inactive: [1] 0.022 | [2] 0.003 | [3] -0.023 | [4] -0.087 | [5] 0.01 | [6] 0.046 | [7] -0.003 | [8] 0.056 | [9] -0.019 | [10] 0.007

NME3 (UniProt Q13232)
inactive: [1] 0.007 | [2] -0.047 | [3] -0.036 | [4] -0.074 | [5] -0.022 | [6] -0.049 | [7] -0.054 | [8] 0.006 | [9] 0.048 | [10] 0.098

NSUN2 (UniProt Q08J23)
inactive: [1] -0.009 | [2] -0.006 | [3] -0.024 | [4] 0.072 | [5] -0.005 | [6] -0.05 | [7] -0.011 | [8] -0.009 | [9] -0.038 | [10] -0.007

NOP58 (UniProt Q9Y2X3)
inactive: [1] 0.016 | [2] -0.018 | [3] -0.007 | [4] 0.005 | [5] -0.002 | [6] -0.079 | [7] -0.039 | [8] -0.027 | [9] -0.032 | [10] -0.027

NUP153 (UniProt P49790)
inactive: [1] 0.026 | [2] -0.005 | [3] -0.011 | [4] 0.014 | [5] 0.002 | [6] -0.041 | [7] -0.016 | [8] 0.036 | [9] -0.024 | [10] 0.018

NOC4L (UniProt Q9BVI4)
inactive: [1] -0.023 | [2] 0.037 | [3] -0.035 | [4] 0.071 | [5] -0.016 | [6] -0.166 | [7] 0.027 | [8] 0.022 | [9] -0.171 | [10] -0.029

NOP2 isoform 4 (UniProt P46087)
inactive: [1] -0.021 | [2] 0.009 | [3] -0.033 | [4] -0.037 | [5] 0.023 | [6] -0.024 | [7] 0.032 | [8] 0.002 | [9] -0.026 | [10] 0.08

NSMCE1 (UniProt Q8WV22)
inactive: [1] -0.047 | [2] -0.03 | [3] -0.02 | [4] -0.019 | [5] 0.029 | [6] -0.052 | [7] 0.034 | [8] 0.024 | [9] -0.044 | [10] 0.002

NOL10 (UniProt Q9BSC4)
inactive: [1] -0.004 | [2] 0.017 | [3] -0.049 | [4] 0.119 | [5] 0.125 | [6] -0.151 | [7] 0.015 | [8] 0.042 | [9] -0.1 | [10] -0.055

NUMBL (UniProt Q9Y6R0)
inactive: [1] 0.01 | [2] 0.111 | [3] 0.066 | [4] 0.018 | [5] 0.162 | [6] 0.176 | [7] 0.036 | [8] 0.247 | [9] 0.041 | [10] 0.036

NRBP2 (UniProt Q9NSY0)
inactive: [1] 0.023 | [2] 0 | [3] -0.014 | [4] 0 | [5] -0.029 | [6] 0.019 | [7] -0.049 | [8] 0.054 | [9] -0.166 | [10] 0.018

NPEPPS (UniProt P55786)
inactive: [1] -0.011 | [2] -0.004 | [3] 0.018 | [4] -0.018 | [5] 0.017 | [6] 0.014 | [7] -0.003 | [8] -0.019 | [9] 0.022 | [10] -0.01

NSFL1C isoform 5 (UniProt Q9UNZ2)
inactive: [1] 0.021 | [2] -0.007 | [3] 0.058 | [4] -0.018 | [5] -0.006 | [6] 0.036 | [7] 0.017 | [8] -0.004 | [9] 0.024 | [10] -0.022

Random excerpt: 2 records from the list, in no set order.
NUMBL (UniProt Q9Y6R0)
inactive: [1] 0.01 | [2] 0.111 | [3] 0.066 | [4] 0.018 | [5] 0.162 | [6] 0.176 | [7] 0.036 | [8] 0.247 | [9] 0.041 | [10] 0.036

NSFL1C isoform 5 (UniProt Q9UNZ2)
inactive: [1] 0.021 | [2] -0.007 | [3] 0.058 | [4] -0.018 | [5] -0.006 | [6] 0.036 | [7] 0.017 | [8] -0.004 | [9] 0.024 | [10] -0.022

Following part:

NSMCE4A (UniProt Q9NXX6)
inactive: [1] -0.01 | [2] -0.019 | [3] -0.01 | [4] 0.029 | [5] -0.046 | [6] -0.022 | [7] 0.055 | [8] 0.014 | [9] 0.016 | [10] 0.045

NOL9 (UniProt Q5SY16)
inactive: [1] 0.01 | [2] 0.025 | [3] -0.013 | [4] 0.031 | [5] 0.053 | [6] -0.099 | [7] 0.056 | [8] -0.014 | [9] -0.082 | [10] -0.052

NUDT9 (UniProt Q9BW91)
inactive: [1] -0.016 | [2] 0 | [3] 0.035 | [4] 0.002 | [5] 0.014 | [6] 0.04 | [7] -0.017 | [8] -0.019 | [9] 0.015 | [10] 0.023

NUDT5 (UniProt Q9UKK9)
active: [4] -0.299
inactive: [1] 0.003 | [2] -0.036 | [3] 0.007 | [5] 0.051 | [6] 0.211 | [7] -0.018 | [8] -0.015 | [9] -0.016 | [10] 0.212

NOSTRIN (UniProt Q8IVI9)
inactive: [1] -0.022 | [2] -0.011 | [3] 0.06 | [4] 0.017 | [5] 0.047 | [6] -0.047 | [7] 0.058 | [8] -0.03 | [9] -0.078 | [10] -0.012

NT5C3B (UniProt Q969T7)
inactive: [1] 0.009 | [2] 0.022 | [3] -0.043 | [4] -0.054 | [5] -0.017 | [6] 0.053 | [7] 0.046 | [8] -0.038 | [9] -0.021 | [10] -0.01

NOA1 (UniProt Q8NC60)
inactive: [1] -0.043 | [2] 0.032 | [3] -0.052 | [4] -0.282 | [5] 0.014 | [6] 0.039 | [7] -0.034 | [8] 0.021 | [9] -0.221 | [10] 0.167

NSRP1 (UniProt Q9H0G5)
inactive: [1] 0.015 | [2] 0 | [3] 0.039 | [4] 0.045 | [5] 0.02 | [6] -0.022 | [7] -0.04 | [8] 0.013 | [9] -0.035 | [10] -0.079

NME7 (UniProt Q9Y5B8)
inactive: [1] 0.031 | [2] -0.021 | [3] -0.038 | [4] -0.036 | [5] 0.018 | [6] -0.005 | [7] 0.044 | [8] -0.027 | [9] 0.003 | [10] 0.01

NUDT3 (UniProt O95989)
inactive: [1] -0.021 | [2] 0.04 | [3] 0.031 | [4] -0.003 | [5] 0.002 | [6] -0.037 | [7] 0.004 | [8] 0.091 | [9] 0.006 | [10] 0.015
